Mtb glucose medium: 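Whole-cell growth test on Mycobacterium tuberculosis, read after 3 days in glucose-containing 7H9 medium; the read-out is not stated. Concentration: 50 µM. The record gives no direction; compounds that gave an IC50 in retests scored well above the rest, so higher reads as more growth inhibition. Size under these conditions: about 69,000 compounds, about 760 of them at 50% or above in at least one test.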
Mtb cholesterol medium: 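Whole-cell growth test on Mycobacterium tuberculosis, read after 4 days in a medium based on cholesterol and the lipid DPPC; the read-out is not stated. Tested at 50 µM. Higher reads as more growth inhibition (inferred: compounds with an IC50 in retests scored well above the rest). About 69,000 compounds were tested under these conditions; 0.54% (about 370) showed 50% or more at least once.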

Each number is a percent effect as filed.
The controls that fix the scale are not given in the record; negative values are as filed.
This is an unselected part of the compounds tested.
Two or more numbers in one place are separate tests of the same structure; such repeats can differ widely.

SMILES,Mtb glucose medium,Mtb cholesterol medium
CCc1c(C)sc2c1c(N)nc(=O)n2CCN(C)C,-7.362% and -37.2%,-31.25%
N#Cc1ccc(SCCOCCO)c(Cl)c1,-3.08%,-1.82%
Cc1nnc(Nc2cccc(C3CCN(CCO)CC3)n2)s1,1.873%,-8.339%
Cc1[nH]ccc1C(=O)NCc1ncoc1C,0.928%,0.4355%
O=c1[nH]c(CN(Cc2ccco2)C2CCCC2)nc2ccccc12,7.212%,-29.53%
COc1ccccc1OC1(C(=O)O)CCN(c2ccccn2)CC1,-7.268%,-12.34%
Cc1ccsc1CN1CCCC(CNC(=O)c2ccc(N)nc2)C1 (stereo not given),-41.39%,-8.852% and 1.708%
[H][C@@]12CN(Cc3nccn3C)C[C@]1([H])OCCN2c1ncccn1,-4.147%,-8.856%
Cn1cc(NC(=O)N2CCC(CN3CCCC3)CC2)ccc1=O,-4.147%,2.14%
CN(C)CCN1CCCC12CCCN(Cc1ccco1)C2.O=C(O)C(F)(F)F.O=C(O)C(F)(F)F.O=C(O)C(F)(F)F (stereo not given),9.719% and -13.13%,-39.53%
Cc1cc(NCCNS(=O)(=O)c2cn(C)nc2C)c2ccccc2n1,3.729%,15.79%
O=S(=O)(Cc1ccccc1)NC[C@H]1Cn2ccnc2CO1,-34.19% and -0.195%,-35.14%
CC(C)(C)NC(=O)COc1ccc(CNCCOc2ccccn2)cc1,9.304%,7.383%
CC(=O)N(C)Cc1nn(C)c2c1CN(Cc1ccsc1)C2.O=C(O)C(F)(F)F.O=C(O)C(F)(F)F,-6.571%,4.605%
O=C(Cc1ccc(-n2cnnn2)cc1)Nc1nncs1,-10.57% and 11.93%,10.88%
COCCN1CCOCC12CCN(C(=O)c1ccoc1)CC2.O=C(O)C(F)(F)F,-8.399%,-21.55%
O=C(NC1CCC1)C1=NOC2(CCN(Cc3ccco3)C2)C1 (stereo not given),-26.14%,-41.36%
CC1CN(Cc2cccc(CNC3CCCC3)c2)CCO1 (stereo not given),2.28% and 15.02%,4.698%
Cc1cc(CN(Cc2ccccc2)CC(O)c2cccs2)on1 (stereo not given),5.346%,7.367%
COCC1CC2(CCN(Cc3nccn3C)CC2)CN1c1ncccn1.O=C(O)C(F)(F)F (stereo not given),26.47% and 0.8593%,-12.23%
CC(=O)N1CCC(Cc2cnc(-c3c(C)nn(C)c3C)cn2)C1 (stereo not given),19.72%,-20.86%
Cc1ccc(N2CCC(C3CCN(CC(C)C)CC3)C2)nn1 (stereo not given),3.347% and 46.52%,7.631%
[H][C@@]12C[C@H](C(=O)N3CCCC3)[C@@]([H])(CN(c3ncc(F)cn3)C1)O2,-21.32%,-14.76%
O=C(c1ccc2c(c1)OCO2)N1CCC(Nc2cccnn2)CC1,-0.9001%,-22.79%
CC(C)COc1cncc(N2CCCN(c3ncccn3)CC2)n1,8.088%,-4.793%
CCN(CC)CC(=O)N1CCCC1Cn1cccn1 (stereo not given),-6.183%,13.87%
CC(NCc1ccc(F)cc1)c1ccc2[nH]c(=O)[nH]c2c1 (stereo not given),19.89% and -1.174%,8.09%
[H][C@@]12COC[C@]1(COc1ccc(C#N)cn1)CN(Cc1nccs1)C2,-7.891%,-2.725%
Cc1cn([C@H]2CCNC[C@]2(C)O)c(=O)[nH]c1=O,15.3%,-1.805% and 16.11%
O=C(O)C(F)(F)F.[H][C@@]12CCCO[C@]1([H])[C@H](N(C)Cc1ccco1)CN(C(=O)c1ccnnc1)C2,30.27%,-1.479%
Cc1ccc(-c2n[nH]cc2CNCC2CCN(CC(C)O)CC2)cc1 (stereo not given),-9.629%,15.73%
Cc1[nH]nc2ncc(C(=O)N3CCN(CCC(C)C)CC3)cc12,-16.06%,-20.2%
Cc1nc(C2CCCN2CC(=O)N(C)Cc2ccsc2)no1 (stereo not given),22.31% and 1.689%,-2.757%
[H][C@@]12CCCC[C@]1(O)CCN(C(=O)c1ccc(C)cc1)C2,-45.58%,-25.05%
CCn1ccnc1CN1CCN(C(C)C(=O)NC2CCCCC2)CC1 (stereo not given),-56%,-21.98%
[H][C@]12CC[C@]([H])(CN(C(=O)Nc3ccccc3C(F)(F)F)C1)N(C)C2=O,-16.94% and 7.26%,4.764%
CC(C)n1cc(CN2CCCN(C(=O)c3nccnc3N)CC2)cn1,-31.52%,-19.21% and -0.7526%
COc1ccc(CC(=O)N(C)Cc2nnc3ccccn23)cc1,6.986%,-12.82%
Cc1nccn1C1CCCN(C(=O)c2cc3ccccc3[nH]2)C1 (stereo not given),-22.95%,-0.8992%
COc1ccccc1C(=O)NC(C)CC(=O)O (stereo not given),9.391%,-21.72%
O=C(O)c1ccnc(-c2ccnc(N3CCC4(CCO4)CC3)n2)c1,-13.9%,-14.5%
Cl.O[C@@H]1CN(Cc2ccc(F)c(F)c2)CC[C@H]1NCc1ccccn1,-34.38%,1.577% and -18.19%
Cn1cnc(S(=O)(=O)Nc2cc(C(N)=O)ccc2Cl)c1,20.15%,17.2%
Cn1cc(CN2CCOC(Cc3cccc(F)c3)C2)cn1 (stereo not given),3.285%,11.83%
COc1ccc(CNC(=O)Nc2ccc(S(=O)(=O)C(F)F)cc2)cc1,-4.254%,-9.22%
Cc1nn(-c2ncnc3[nH]cnc23)c2c1C(CC(C)C)CC(=O)N2 (stereo not given),19.72% and 3.482%,23.02%
COc1cccc(NC(=O)NCC2CCCN(C3CCOCC3)C2)c1 (stereo not given),-13.51%,1.301%
CC1CCCN(C(=O)c2cc(-c3ccco3)cs2)C1 (stereo not given),23.65%,13.07%
CCCc1cc(C(=O)Nc2nc(SC)ns2)[nH]n1,13.29%,-0.323%
Cc1nc2ccc(C(=O)N3CC[C@H](O)[C@@H](N4CCOCC4)CC3)cc2[nH]1,26.85%,10.66%
CC1CCC(O)(CSc2nnnn2C)CC1 (stereo not given),8.03%,9.363%
COc1cccc([C@@H]2CCN(Cc3cccc(C)n3)C[C@H]2O)c1,8.578%,-24.65%
O=C(CCc1cc(Cl)no1)N1CCN(CCn2cncn2)CC1,-27.38%,-23.65%

For reference, 4 entries once more:

- CCn1ccnc1CN1CCN(C(C)C(=O)NC2CCCCC2)CC1 (stereo not given) : Mtb glucose medium: -56%; Mtb cholesterol medium: -21.98%
- [H][C@]12CC[C@]([H])(CN(C(=O)Nc3ccccc3C(F)(F)F)C1)N(C)C2=O : Mtb glucose medium: -16.94% and 7.26%; Mtb cholesterol medium: 4.764%
- CC(C)n1cc(CN2CCCN(C(=O)c3nccnc3N)CC2)cn1 : Mtb glucose medium: -31.52%; Mtb cholesterol medium: -19.21% and -0.7526%
- CC1CN(Cc2cccc(CNC3CCCC3)c2)CCO1 (stereo not given) : Mtb glucose medium: 2.28% and 15.02%; Mtb cholesterol medium: 4.698%

Data taken from ChEMBL document CHEMBL3988442, “University of Dundee, Small-Polar-MMV Screening Library” (2021).